Experimental data published in the supplement of paper PMC10849652.
This is one part of the list.

Chains of the proteins cited; added tags and fusions are not shown. Lines headed by an entry give the natural chain unless they say otherwise; changes in a name come on top.
UniProt P54277: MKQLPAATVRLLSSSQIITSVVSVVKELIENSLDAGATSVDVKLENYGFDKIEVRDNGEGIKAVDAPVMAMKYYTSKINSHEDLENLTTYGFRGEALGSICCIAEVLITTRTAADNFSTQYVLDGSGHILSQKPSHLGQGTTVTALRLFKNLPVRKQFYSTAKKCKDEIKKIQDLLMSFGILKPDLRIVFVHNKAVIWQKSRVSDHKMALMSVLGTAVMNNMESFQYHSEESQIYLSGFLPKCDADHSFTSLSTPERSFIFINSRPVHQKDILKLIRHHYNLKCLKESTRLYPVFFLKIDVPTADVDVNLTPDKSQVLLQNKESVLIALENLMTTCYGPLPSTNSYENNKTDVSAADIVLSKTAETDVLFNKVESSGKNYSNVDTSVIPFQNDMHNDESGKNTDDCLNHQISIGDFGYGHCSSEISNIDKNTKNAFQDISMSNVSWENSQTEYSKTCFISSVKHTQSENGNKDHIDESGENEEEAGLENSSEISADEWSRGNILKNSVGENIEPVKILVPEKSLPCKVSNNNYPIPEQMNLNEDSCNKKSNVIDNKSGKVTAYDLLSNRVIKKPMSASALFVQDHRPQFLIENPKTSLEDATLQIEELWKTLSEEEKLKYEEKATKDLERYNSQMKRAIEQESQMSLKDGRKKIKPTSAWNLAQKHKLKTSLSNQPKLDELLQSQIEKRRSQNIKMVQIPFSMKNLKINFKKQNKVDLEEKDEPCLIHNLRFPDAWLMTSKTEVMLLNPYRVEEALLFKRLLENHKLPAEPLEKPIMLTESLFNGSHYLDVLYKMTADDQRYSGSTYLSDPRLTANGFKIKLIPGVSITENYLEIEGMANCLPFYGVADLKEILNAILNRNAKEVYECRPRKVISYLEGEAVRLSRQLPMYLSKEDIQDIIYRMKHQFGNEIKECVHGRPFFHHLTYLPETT
UniProt P41247: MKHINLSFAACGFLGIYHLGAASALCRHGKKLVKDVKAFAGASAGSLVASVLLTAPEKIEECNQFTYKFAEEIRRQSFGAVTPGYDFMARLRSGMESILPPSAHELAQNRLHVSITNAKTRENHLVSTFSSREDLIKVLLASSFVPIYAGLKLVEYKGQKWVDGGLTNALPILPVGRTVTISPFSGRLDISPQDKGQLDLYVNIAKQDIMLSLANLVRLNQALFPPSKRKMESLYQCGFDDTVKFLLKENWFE
UniProt Q58EX7: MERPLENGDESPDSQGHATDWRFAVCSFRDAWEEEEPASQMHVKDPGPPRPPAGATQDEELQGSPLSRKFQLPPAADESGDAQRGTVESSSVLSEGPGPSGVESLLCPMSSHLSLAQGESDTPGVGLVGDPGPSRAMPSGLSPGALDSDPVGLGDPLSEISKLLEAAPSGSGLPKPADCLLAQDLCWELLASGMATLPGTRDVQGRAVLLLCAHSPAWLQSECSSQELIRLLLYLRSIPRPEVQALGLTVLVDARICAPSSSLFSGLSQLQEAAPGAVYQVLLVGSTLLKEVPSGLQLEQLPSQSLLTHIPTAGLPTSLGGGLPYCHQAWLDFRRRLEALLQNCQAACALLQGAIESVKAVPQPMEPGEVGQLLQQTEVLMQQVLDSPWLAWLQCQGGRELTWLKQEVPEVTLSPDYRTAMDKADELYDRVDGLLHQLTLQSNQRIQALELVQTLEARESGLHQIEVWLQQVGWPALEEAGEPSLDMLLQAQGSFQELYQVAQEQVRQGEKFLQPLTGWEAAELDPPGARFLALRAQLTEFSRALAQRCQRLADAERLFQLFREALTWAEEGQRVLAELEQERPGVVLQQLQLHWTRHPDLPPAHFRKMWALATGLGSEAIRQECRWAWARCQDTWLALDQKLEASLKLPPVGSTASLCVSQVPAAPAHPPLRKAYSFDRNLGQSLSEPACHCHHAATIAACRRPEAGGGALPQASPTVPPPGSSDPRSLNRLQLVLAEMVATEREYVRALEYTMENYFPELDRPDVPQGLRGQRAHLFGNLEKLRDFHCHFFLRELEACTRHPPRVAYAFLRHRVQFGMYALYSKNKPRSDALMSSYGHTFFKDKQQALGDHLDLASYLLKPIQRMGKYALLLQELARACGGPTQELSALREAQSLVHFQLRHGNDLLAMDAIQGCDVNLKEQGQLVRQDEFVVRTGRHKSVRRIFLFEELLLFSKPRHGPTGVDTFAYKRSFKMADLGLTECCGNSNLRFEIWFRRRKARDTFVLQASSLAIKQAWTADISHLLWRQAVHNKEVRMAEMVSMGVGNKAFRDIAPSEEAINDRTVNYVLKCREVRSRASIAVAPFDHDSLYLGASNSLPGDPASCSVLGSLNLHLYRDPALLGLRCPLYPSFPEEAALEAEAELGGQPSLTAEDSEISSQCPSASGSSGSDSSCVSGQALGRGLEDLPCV
UniProt Q86V59: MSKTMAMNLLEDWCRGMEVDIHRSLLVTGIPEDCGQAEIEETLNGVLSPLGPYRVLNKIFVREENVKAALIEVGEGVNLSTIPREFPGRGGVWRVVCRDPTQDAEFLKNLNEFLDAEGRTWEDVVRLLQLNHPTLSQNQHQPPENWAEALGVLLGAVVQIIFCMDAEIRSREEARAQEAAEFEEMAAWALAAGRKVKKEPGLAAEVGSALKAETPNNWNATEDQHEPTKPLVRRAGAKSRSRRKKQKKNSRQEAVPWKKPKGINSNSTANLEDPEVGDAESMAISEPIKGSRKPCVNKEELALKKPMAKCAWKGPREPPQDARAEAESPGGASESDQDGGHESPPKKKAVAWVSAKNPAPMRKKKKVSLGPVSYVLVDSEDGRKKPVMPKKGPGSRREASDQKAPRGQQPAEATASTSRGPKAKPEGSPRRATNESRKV
UniProt Q9UBT6: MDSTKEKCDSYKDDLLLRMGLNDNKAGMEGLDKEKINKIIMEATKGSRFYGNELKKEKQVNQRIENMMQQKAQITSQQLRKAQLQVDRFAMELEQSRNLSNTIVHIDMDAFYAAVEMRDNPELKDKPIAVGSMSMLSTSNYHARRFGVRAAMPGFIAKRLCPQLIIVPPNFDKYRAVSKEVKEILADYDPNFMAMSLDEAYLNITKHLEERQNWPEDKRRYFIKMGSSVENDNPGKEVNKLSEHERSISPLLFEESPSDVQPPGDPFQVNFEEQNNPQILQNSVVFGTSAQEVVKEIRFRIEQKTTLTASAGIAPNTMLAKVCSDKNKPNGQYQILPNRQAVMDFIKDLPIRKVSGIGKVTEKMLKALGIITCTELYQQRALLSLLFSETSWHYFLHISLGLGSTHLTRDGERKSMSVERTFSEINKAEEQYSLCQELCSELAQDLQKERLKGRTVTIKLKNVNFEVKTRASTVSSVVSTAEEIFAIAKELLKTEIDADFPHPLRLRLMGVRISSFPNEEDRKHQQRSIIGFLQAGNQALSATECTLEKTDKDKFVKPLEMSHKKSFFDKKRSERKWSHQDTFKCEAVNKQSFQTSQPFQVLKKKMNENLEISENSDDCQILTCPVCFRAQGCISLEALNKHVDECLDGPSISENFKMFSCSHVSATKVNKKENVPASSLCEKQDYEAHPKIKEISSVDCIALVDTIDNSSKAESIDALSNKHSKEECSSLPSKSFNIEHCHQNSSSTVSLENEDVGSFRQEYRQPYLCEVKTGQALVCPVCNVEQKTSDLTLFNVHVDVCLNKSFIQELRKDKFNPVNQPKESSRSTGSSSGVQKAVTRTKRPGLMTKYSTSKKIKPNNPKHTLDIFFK
UniProt P11086: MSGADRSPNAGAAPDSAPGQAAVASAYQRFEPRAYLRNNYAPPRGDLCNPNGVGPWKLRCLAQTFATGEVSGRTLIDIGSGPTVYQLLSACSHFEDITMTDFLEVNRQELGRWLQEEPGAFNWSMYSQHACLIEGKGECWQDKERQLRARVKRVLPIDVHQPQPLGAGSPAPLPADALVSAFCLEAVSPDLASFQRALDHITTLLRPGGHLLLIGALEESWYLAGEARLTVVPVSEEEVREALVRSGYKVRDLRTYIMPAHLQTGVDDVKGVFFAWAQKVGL
UniProt Q9Y4D7: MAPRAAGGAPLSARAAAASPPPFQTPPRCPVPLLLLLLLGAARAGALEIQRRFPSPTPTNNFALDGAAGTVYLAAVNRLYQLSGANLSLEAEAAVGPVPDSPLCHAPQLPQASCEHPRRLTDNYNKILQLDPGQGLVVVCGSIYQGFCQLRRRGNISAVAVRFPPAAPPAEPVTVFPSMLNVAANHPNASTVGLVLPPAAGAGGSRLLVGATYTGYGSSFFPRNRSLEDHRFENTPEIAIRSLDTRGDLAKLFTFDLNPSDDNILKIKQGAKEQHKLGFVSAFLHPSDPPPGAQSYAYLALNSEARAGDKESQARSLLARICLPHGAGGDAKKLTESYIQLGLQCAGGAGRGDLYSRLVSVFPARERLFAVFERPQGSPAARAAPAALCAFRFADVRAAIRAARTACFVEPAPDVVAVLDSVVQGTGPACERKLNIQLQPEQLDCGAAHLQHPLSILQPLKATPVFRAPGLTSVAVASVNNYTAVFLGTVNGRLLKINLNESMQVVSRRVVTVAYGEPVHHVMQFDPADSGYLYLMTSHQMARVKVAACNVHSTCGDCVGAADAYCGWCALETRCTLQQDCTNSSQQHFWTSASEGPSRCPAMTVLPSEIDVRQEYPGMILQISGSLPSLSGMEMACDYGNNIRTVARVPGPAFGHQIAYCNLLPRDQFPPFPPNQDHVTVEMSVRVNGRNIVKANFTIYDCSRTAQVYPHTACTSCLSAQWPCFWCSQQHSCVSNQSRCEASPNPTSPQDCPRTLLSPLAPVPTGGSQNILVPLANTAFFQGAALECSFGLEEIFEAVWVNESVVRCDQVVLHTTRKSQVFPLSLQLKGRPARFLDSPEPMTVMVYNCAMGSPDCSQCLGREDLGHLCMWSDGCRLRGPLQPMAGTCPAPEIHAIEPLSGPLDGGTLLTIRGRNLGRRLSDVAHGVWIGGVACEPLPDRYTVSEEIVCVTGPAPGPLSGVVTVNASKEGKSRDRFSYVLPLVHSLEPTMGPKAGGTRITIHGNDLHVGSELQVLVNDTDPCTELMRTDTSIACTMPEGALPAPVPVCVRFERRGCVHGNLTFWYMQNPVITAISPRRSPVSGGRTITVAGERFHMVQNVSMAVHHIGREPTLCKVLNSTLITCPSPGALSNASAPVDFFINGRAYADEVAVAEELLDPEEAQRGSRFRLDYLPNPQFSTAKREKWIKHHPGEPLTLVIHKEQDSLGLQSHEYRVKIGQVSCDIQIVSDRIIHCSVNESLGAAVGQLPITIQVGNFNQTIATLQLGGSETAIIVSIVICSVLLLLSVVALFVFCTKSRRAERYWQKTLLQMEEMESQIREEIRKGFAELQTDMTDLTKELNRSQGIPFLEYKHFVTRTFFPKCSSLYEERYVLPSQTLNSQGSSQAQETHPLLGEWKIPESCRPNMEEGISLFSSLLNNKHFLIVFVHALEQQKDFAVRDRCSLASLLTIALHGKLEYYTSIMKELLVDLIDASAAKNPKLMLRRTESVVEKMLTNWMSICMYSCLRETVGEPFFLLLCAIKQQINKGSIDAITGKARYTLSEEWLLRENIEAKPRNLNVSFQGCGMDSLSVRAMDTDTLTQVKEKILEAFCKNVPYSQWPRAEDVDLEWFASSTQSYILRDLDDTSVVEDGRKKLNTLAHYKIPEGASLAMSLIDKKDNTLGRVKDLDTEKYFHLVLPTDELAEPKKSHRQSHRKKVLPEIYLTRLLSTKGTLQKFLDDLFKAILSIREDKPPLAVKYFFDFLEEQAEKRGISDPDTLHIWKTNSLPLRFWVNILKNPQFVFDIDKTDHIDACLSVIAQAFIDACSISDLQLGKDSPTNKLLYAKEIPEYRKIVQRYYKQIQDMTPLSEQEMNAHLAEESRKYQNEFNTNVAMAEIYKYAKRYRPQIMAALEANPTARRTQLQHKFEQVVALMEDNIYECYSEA
UniProt Q8NEY8: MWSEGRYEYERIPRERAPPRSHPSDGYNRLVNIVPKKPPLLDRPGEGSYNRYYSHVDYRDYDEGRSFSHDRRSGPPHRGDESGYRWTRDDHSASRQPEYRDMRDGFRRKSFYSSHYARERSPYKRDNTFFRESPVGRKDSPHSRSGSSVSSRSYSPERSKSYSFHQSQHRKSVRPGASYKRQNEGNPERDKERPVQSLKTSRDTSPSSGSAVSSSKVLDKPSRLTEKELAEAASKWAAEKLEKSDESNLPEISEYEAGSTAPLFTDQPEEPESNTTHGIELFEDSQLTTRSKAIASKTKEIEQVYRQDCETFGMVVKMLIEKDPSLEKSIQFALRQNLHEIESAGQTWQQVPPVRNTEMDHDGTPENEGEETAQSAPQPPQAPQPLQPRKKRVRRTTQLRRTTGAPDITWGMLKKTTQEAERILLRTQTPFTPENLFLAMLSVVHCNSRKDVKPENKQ
UniProt Q9NW61: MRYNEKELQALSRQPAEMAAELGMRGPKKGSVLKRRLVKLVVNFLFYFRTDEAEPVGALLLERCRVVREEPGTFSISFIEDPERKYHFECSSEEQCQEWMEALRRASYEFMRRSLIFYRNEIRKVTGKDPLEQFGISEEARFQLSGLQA

Compound: CC[C@@H]1C(=O)N(C)c2cnc(Nc3ccc(C(=O)NC4CCN(C)CC4)cc3OC)nc2N1C1CCCC1
Assay: log2 fold change, soluble protein after heating vs DMSO (PISA); higher = thermal stabilisation; K562 lysate, 10 uM; active = over 0.2 and 3.5 SD of the protein, either way, in both replicates (recomputed)
Procedure, shortened: (§1)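 Dounce homogenisation of K562 pellets in PBS pH 7.4 with 1 mM MgCl2 produced a crude extract, used at 1 mg/mL protein. Exposure to 10 μM compound lasted 30 min, and aliquots were then heated for 3 min across 48°C-58°C, pooled and brought to 0.5% NP-40 at 4°C. The supernatant after 21,000xg for 90 min was quantified by TMTpro 16plex LC-MS/MS with channel sums equalised. Duplicate values are given as log-two fold change in thermal stability relative to solvent controls.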

Row | Target | log2 fold change
1 | PPFIBP1 (UniProt Q86W92) | inactive: -0.115
2 | POLR2K (UniProt P53803) | inactive: -0.158
3 | PLEKHM1 (UniProt Q9Y4G2) | inactive: -0.149
4 | POC1B (UniProt Q8TC44) | inactive: 0.149
5 | PMM1 (UniProt Q92871) | inactive: -0.01
6 | POSTN (UniProt Q15063) | inactive: 0.088
7 | PMS1 (UniProt P54277) | inactive: 0.019
8 | PNPLA4 (UniProt P41247) | inactive: 0.002
9 | POC1A (UniProt Q8NBT0) | inactive: -0.268
10 | PML isoform 11 (UniProt P29590) | inactive: -0.026
11 | POLR2J (UniProt P52435) | inactive: 0.029
12 | PLEKHG4 (UniProt Q58EX7) | inactive: 0.015
13 | PLOD2 isoform 2 (UniProt O00469) | inactive: -0.925
14 | POMK (UniProt Q9H5K3) | inactive: 0.016
15 | PLGRKT (UniProt Q9HBL7) | inactive: 0.139
16 | POLR2F (UniProt U3KPV3) | inactive: 0.13
17 | PNMA8A (UniProt Q86V59) | inactive: 0.102
18 | PPFIBP2 (UniProt Q8ND30) | inactive: -0.049

Compound: CC[C@@H]1C(=O)N(C)c2cnc(Nc3ccc(C(=O)N[C@H]4CC[C@H](N5CCN(CC6CC6)CC5)CC4)cc3OC)nc2N1C(C)C [volasertib]
Assay: as above
Procedure, shortened: as §1

Row | Target | log2 fold change
19 | POTEKP (UniProt Q9BYX7) | inactive: -0.083
20 | POMT1 (UniProt Q9Y6A1) | inactive: -0.018
21 | POLK (UniProt Q9UBT6) | inactive: 0.042
22 | POLG2 (UniProt J3KRM2) | inactive: -0.048
23 | PMS2CL (UniProt Q68D20) | inactive: -0.039
24 | POC1A (UniProt Q8NBT0) | inactive: -0.277
25 | POLR2J (UniProt P52435) | inactive: -0.027
26 | PNMT (UniProt P11086) | inactive: 0.017
27 | PNMA8A (UniProt Q86V59) | inactive: 0.184
28 | POM121C (UniProt A8CG34) | inactive: -0.101

Compound: CCn1c(C(=O)N(C2CC2)C2CC2)cc2c3c(ncn3C)c(Nc3cc(C)n(C)n3)nc21
Assay: as above
Procedure, shortened: as §1

Row | Target | log2 fold change
29 | PLXNB1 (UniProt O43157) | inactive: 0.095
30 | POTEKP (UniProt Q9BYX7) | inactive: 0.973
31 | PLTP (UniProt P55058) | inactive: 0.035
32 | POLR2K (UniProt P53803) | inactive: 0.043
33 | PLEKHM1 (UniProt Q9Y4G2) | inactive: -0.023
34 | POC1B (UniProt Q8TC44) | inactive: 0.043
35 | PPARGC1B (UniProt Q86YN6) | inactive: 0.081
36 | PMM1 (UniProt Q92871) | inactive: 0.031
37 | POSTN (UniProt Q15063) | inactive: -0.029
38 | POU6F1, A0A1C7CYV8 | inactive: -0.029
39 | PMS1 (UniProt P54277) | inactive: -0.028
40 | PLXND1 (UniProt Q9Y4D7) | inactive: -0.214
41 | PLPP6 (UniProt Q8IY26) | inactive: 0.041
42 | PMS2CL (UniProt Q68D20) | inactive: -0.06
43 | PNPLA4 (UniProt P41247) | inactive: -0.111
44 | POLR2J (UniProt P52435) | inactive: 0.065
45 | PPIC (UniProt P45877) | inactive: 0.078
46 | PLEKHG4 (UniProt Q58EX7) | inactive: 0.049
47 | PPHLN1 isoform 3 (UniProt Q8NEY8) | inactive: -0.175
48 | PNMT (UniProt P11086) | inactive: 0.099
49 | POMK (UniProt Q9H5K3) | inactive: 0.082
50 | PLPPR3 isoform 3 (UniProt Q6T4P5) | inactive: 0.209
51 | PLGRKT (UniProt Q9HBL7) | inactive: -0.004
52 | PNMA8A (UniProt Q86V59) | inactive: -0.003
53 | POM121C (UniProt A8CG34) | inactive: 0.045
54 | PLEKHJ1 (UniProt Q9NW61) | inactive: 0.106
